From patent publication US20180021429A1, “ANTICANCER AGENTS OR ANTIMETASTATIC AGENTS USING FSTL1 AND COMBINATION DRUG THEREOF” (PHARMA FOODS INTERNATIONAL CO., LTD., priority 2015, published 2018)

B1: #33: chicken-mouse chimeric anti-FSTL1 antibody clone; variable regions SEQ ID NO: 823 (light), 825 (heavy) (antibody, V domains shown)
VH: AVTLDESGGGLQTPGGGLSLVCKASGFTFSSFNMNWVRQAPGKGLEYVAEISGTGSSTYYGSAVKGRATISRDNGQSTVRLQLNNLRAEDTATYFCARGDGAYSIDAWGHGTEVIVSS
VL: ASTQPSSVSANPGETVEITCSGDSSYYGWFQQKSPGSAPVTVIYDNTNRPSDIPSRFSGSKSGSTATLTITGVRAEDEAVYYCGGYDSSTYDGIFGAGTTLTVL
modifications: mouse constant regions
B2: #22: chicken-mouse chimeric anti-FSTL1 antibody clone; variable regions SEQ ID NO: 819 (light), 821 (heavy) (antibody, V domains shown)
VH: AVTLDESGGGLQTPGGALSLVCKASGFTFSSNGMAWVRQAPGKGLELVARINSSGSYTNYGAAVKGRATISRDNGQSTVRLQLNNLRAEDTGTYYCAKGASGYGAYPGNIDAWGHGTEVIVSS
VL: ASTQPSSVSANPGETVKITCSGGSGSYGWFQQKSPGSAPVTVIYWDDRRPSDIPSRFSGSKSGSIHTLTITGVQADDEAVYLCGNAVRSGTGYVGVFGAGTTLTVL
modifications: mouse constant regions
B3: #6-55: chicken-mouse chimeric anti-FSTL1 antibody clone; variable regions SEQ ID NO: 783 (light), 785 (heavy) (antibody, V domains shown)
VH: AVTLDESGGGLQTPGGALSLVCKGSGFTFTSVTMQWVRQAPGKGLEWVASVCSGSSTYYAPAVKGRATISRDNGQSTVRLQLSNLRPEDTGTYYCAKIAGRARWSCTSAAYNIDAWGHGTEVIVSS
VL: ASTQPSSVSAIPGETVKITCSGGGNNYGWYQQRSPGSAPVTVIYYNDNRPSNIPSRFSGSTSGSTSTLTITGVQADDEAIYYCGSWDSNTDSGIFGAGTTLTVL
modifications: mouse constant regions

tested on: human FSTL1 deletion mutants; assay: Epitope mapping ELISA (Example 3); type: binding; details: further fragmented deletion mutants

Molecule | putative epitope, amino acid positions of human FSTL1, narrowed down
B1 | 48 to 100
B2 | 193 to 216
B3 | 148-162
